# Experimental data from patent US4185096A, “Novel derivatives of pepstatin, their preparation and compositions containing them” (Agence Nationale de Valorisation de la Recherche (ANVAR), priority 1977, dated 1980).
# By UniProt entry, the sequences of proteins in these tests, tags left out. Residues count along the entry.
# UniProt A0A287APG1, 24-407: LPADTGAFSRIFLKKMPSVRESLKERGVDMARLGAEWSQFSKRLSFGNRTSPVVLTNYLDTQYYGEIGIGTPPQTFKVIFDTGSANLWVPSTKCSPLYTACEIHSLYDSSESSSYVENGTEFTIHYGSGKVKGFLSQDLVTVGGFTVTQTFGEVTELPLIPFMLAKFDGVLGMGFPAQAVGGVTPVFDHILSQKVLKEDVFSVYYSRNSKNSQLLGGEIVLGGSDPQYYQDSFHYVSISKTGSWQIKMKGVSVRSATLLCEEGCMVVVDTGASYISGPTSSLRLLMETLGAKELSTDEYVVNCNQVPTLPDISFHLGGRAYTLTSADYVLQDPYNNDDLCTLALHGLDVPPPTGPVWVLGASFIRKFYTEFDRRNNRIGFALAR
# At least one compound was matched to its structure with a doubt left. Non-standard residues stand in square brackets, D forms with d. Residues, ends and D or L forms follow the SMILES beside them. *: point of attachment. Sta = CC(C)C[C@H](N)[C@@H](O)CC(=O)O; Isovaleryl = CC(C)CC(=O)*
# Tests used:
# purified hog renin = molecular target: T1, purified hog renin (Sus scrofa, UniProt A0A287APG1); assay: in vitro inhibition of hog renin on natural substrate (rat angiotensinogen), angiotensin I by radioimmunoassay; format: biochemical; conditions: 30 micro-Goldblatt units hog renin, pH 6.5, 15 minutes, 37° C., excess rat renin substrate; read-out: concentration giving 50% inhibition of renin activity
# T1 construct: purified hog renin [CORVOL et al. Cir; Res., 41, 616-622 (1977)]; from tissue; host or cells: hog tissue
# hog renin = assay: in vitro inhibition of hog renin on synthetic N-acetylated tetradecapeptide substrate, fluorimetry, Dixon plot; format: biochemical; conditions: 10 milli-Goldblatt units hog renin, pH 6, one hour, 37° C., Dixon representation; read-out: inhibition constant
# Method: 10 milli-Goldblatt units of hog renin, from the same source as above, were incubated at pH 6 for one hour at 37° C. in the presence of a synthetic substrate constituted by a N-acetylated renin tetradecapeptide [GALEN et al. Biochem. Biophys. Acta, 523, 485-493 (1978)]. The tetrapeptide quantity produced per hour of incubation was measured by fluorimetry. Three different concentrations of N-acetylated tetradecapeptide were used, that is to say 2.3, 4.6 and 9.3 nmoles with increasing amounts of pepstatin or methyl ester of pepstatin-[…].25, 0.50 and 0.75 10^-6 mole/l).
Structure (SMILES),IC50 (purified hog renin) [nM],Ki (hog renin) [nM]
"CC(C)CC(=O)N[C@H](C(=O)N[C@H](C(=O)N[C@@H](CC(C)C)[C@@H](O)CC(=O)N[C@@H](C)C(=O)N[C@@H](CC(C)C)[C@@H](O)CC(=O)O)C(C)C)C(C)C [pepstatin, isovaleryl-L-valyl-L-valyl-4-amino-3-hydroxy-6-methyl-heptanoyl-L-alanyl-4-amino-3-hydroxy-6-methylheptanoic acid] (Isovaleryl-VV[Sta]A[Sta]-OH)",100,100
COC(=O)[C@H](CCCNC(=N)N)NC(=O)C[C@H](O)[C@H](CC(C)C)NC(=O)[C@H](C)NC(=O)C[C@H](O)[C@H](CC(C)C)NC(=O)[C@@H](NC(=O)[C@@H](NC(=O)CC(C)C)C(C)C)C(C)C [methyl ester of pepstatin-arginine] (Isovaleryl-VV[Sta]A[Sta]R-OMe),~100,–
